Measurements: PubChem BioAssay AID624415 (National Center for Advancing Translational Sciences (NCATS), 2012)
Values joined by “and” are separate entries in the source; they are usually repeats but may differ in a detail not shown here. Identical values can stand only once. Hit rate of the full screen: of about 390,000 compounds, about 60 (0.02%) were called active. This list was built around the results that the source calls inconclusive (neither active nor inactive); the mix of calls is not that of the screen. No stated cut-off is given here; in the data, active means activity change below about -50%; inconclusive means between about -30% and that limit; inactive means weaker than that.

Amino acid sequences for entries named in this document (tags omitted).
UniProt Q9GZU1, whole entry, looked up: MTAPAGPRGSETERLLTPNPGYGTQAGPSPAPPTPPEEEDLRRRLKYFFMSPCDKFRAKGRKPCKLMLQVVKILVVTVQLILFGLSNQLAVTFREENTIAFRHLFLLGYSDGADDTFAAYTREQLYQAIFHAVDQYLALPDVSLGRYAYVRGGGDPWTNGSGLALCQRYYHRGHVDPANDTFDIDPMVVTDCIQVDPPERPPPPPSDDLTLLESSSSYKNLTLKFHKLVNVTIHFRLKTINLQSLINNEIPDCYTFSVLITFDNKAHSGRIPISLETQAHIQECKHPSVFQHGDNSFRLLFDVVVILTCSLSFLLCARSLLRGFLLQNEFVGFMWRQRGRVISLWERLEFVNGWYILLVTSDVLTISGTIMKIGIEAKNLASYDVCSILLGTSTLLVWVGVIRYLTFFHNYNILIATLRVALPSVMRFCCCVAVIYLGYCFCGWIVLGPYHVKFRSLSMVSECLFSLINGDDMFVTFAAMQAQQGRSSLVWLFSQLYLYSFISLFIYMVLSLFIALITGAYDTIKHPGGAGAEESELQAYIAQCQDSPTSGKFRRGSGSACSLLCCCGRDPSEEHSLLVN

target: Mucolipin-1 (Homo sapiens) (UniProt Q9GZU1); assay: qHTS for Inhibitors of the Human Mucolipin Transient Receptor Potential 1 (TRPML1); conditions: TRPML1-inducible cells, Ca2+ dye fluorescence, FDSS; hits give low values; inhibition of EC80 agonist-evoked calcium signal;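 further: stimulus is agonist 54-4 at its EC80 concentration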
In short: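 Tet-induced TRPML1-DL cells loaded with Ca8 no-wash calcium dye were read kinetically on FDSS. Compound addition was followed by EC80 agonist 54-4 (4 uM final); inhibition was read over 110 s.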
On the % scale 0 is the no-effect control and ±100 the full control effect.

SMILES | activity change, negative = inhibition
CC(C)Cc1nn2c(=O)cc(COC(=O)c3ccc(NC(=O)c4cccs4)cc3)nc2s1 | active: -67.9%
COc1ccc2cc(C(c3nnnn3C(C)(C)C)N3CCSCC3)c(=O)[nH]c2c1 (stereo unspecified) | inactive: -5.96%
CC1CCCN(C(=O)Cn2nnc(-c3ccc(S(C)(=O)=O)cc3)n2)C1 (stereo unspecified) | inactive: -10.5%
COc1ccc(N(CC(=O)NC(C)c2ccccc2)S(=O)(=O)c2c(C)noc2C)cc1 (stereo unspecified) | inconclusive: -37.7%
CCN(c1cc(C)cc(C)c1)S(=O)(=O)c1nnc(NC(=O)C2CCCCC2)s1 | inconclusive: -31.7%
CC(C)CNC(=O)COC(=O)CCC(=O)c1ccc(Cl)cc1 | inconclusive: -31.9%
Cc1cc(/C=N/NC(=O)Cn2c3ccccc3c(=O)c3ccccc32)c(C)n1-c1ccc(Cl)cc1 | inconclusive: -34.8%
COc1ccc(OC)c(NC(=O)C(Sc2ccccc2)c2ccccc2)c1 (stereo unspecified) | active: -51.5%
Cn1c(=O)n(-c2ccc(F)c(Cl)c2)c(=O)c2sc3ccccc3c21 | inconclusive: -30.7%
CCOC(=O)CCCc1ccc(/C(C)=N/NC(=S)NC)cc1 | inconclusive: -31.1%
c1ccc(-n2ncc3c(NC4CCCC4)ncnc32)cc1 | inconclusive: -35.9%
Cc1cccc(C(=O)Nc2nnc(SCC(=O)NC3CC3)s2)c1 | active: -52.3%
COC(=O)c1ccc(Oc2nc3ccccc3n3c(C)nnc23)cc1 | inconclusive: -38.9%
COc1ccc(Cn2ccnc2)cc1[N+](=O)[O-] | inconclusive: -31.3%
Cn1c(=O)oc2cc(S(=O)(=O)NCCN3CCc4ccccc4C3)ccc21 | inconclusive: -33.1%
Cc1cc(Nc2ccccc2C(=O)O)n(-c2cccc(Cl)c2)n1 | inconclusive: -34.7%
COc1cc(C(=O)NCC2(N3CCCCC3)CCCCC2)ccc1OCC(=O)N1CCOCC1 | inconclusive: -36.4%
C=C(C)COc1ccc(-c2[nH]ncc2Oc2cccc(OC)c2)c(O)c1 | inactive: -18.1%
Cc1ccc(C=C2C(=O)c3ccccc3C2=O)o1 | inactive: -2.22%
CC1CCC(NC(=O)c2cc3c(=O)n(C)c4ccccc4c3n2C)CC1 (stereo unspecified) | inconclusive: -38.5%
CCN(CC(=O)Nc1ccc(C)c(S(=O)(=O)N(C)C)c1)Cc1ccccc1 | inconclusive: -35.1%
O=C(/C=C/c1cccc(Cl)c1)NCc1cccs1 | inactive: 28.4%

SMILES | activity change, negative = inhibition
Cc1ccc(Cl)cc1N1CCN(C(=O)CN2C(=O)COc3ccc(S(=O)(=O)N4CCCCCC4)cc32)CC1 | inactive: 23%
CCC1CCCCN1CCCNC(=O)C1CCCN(c2nn3c(=O)cc(C)nc3s2)C1 (stereo unspecified) | inconclusive: -45.4%
CCCCNc1nc2ccccc2n1CC(=O)Nc1c(C)cccc1CC | inactive: 2.4%
CCC(C(=O)OCC(=O)Nc1c(Cl)cc(Cl)cc1Cl)c1ccccc1 (stereo unspecified) | inconclusive: -44.5%
CCOc1ccccc1NC(=O)Cn1nnc(C(=O)NCc2ccco2)c1N | inconclusive: -36.5%
CN(C)/C=C1\C=C2C(=O)c3ccccc3N2C1=O | inconclusive: -32.8%
CCCC(CCC)=NNc1ccc(S(=O)(=O)Nc2ccccc2OC)cc1[N+](=O)[O-] | inconclusive: -41.8%
O=C(NCC(c1cccs1)S(=O)(=O)c1cccs1)c1ccccc1 (stereo unspecified) | inconclusive: -31.7%
C/[N+]([O-])=C1\Cc2ccccc2C1=O | inconclusive: -32.4%
NS(=O)(=O)c1ccc(NC(=O)/C(=C/c2ccncc2)NC(=O)c2ccccc2)cc1 | inconclusive: -30.9%
COc1ccc(Cn2c(C(=O)O)c(CNCc3cccc(OC)c3)c3ccc(C)cc32)cc1 | inconclusive: -31.4%
CCc1nn(CC(=O)N2CCN(c3cccc(C)c3C)CC2)c(=O)c2cc3occc3n12 | inconclusive: -35.7%
CC(C)(C)c1ccc(C2Sc3ccccc3NC3=C2C(=O)c2ccccc23)cc1 (stereo unspecified) | inactive: 27.6%
CCOc1cccc2cc(-c3cn4c(n3)sc3cc(C)ccc34)c(=O)oc12 | inconclusive: -31.9%
Cc1cc(Br)ccc1NC(=O)C(Cc1ccccc1)NS(=O)(=O)c1ccc(Br)s1 (stereo unspecified) | inconclusive: -31.1%
Cn1c(CNC(=O)CSc2n[nH]c(-c3ccccc3Cl)n2)nc2ccccc21 | inconclusive: -35.2%
COc1ccc(N2CCN(C(=O)c3c(C)oc4ncnc(N5CCCCC5)c34)CC2)cc1 | inconclusive: -36.8%
COc1ccc(C(=O)N/C(=C/c2cccs2)c2nc3ccccc3[nH]2)cc1OC | inactive: 2.79%
Cn1c(=O)c2c(SCC(=O)N3CCc4ccccc43)nc(-c3cccc(F)c3)nc2n(C)c1=O | inconclusive: -33.9%
CN1CCN(c2ccc(S(=O)(=O)N3CCOCC3)cc2NC(=O)COc2ccc(C#N)cc2)CC1 | inconclusive: -30.3%
Cc1ccccc1-c1cc2nccc(-c3cc(Cl)ccc3O)n2n1 | inconclusive: -30.8%
NS(=O)(=O)c1cccc(NS(=O)(=O)c2ccc3ccccc3c2)c1 | inconclusive: -47%

SMILES | activity change, negative = inhibition
Cc1ccc(CNC(=O)C(CCC(N)=O)NC(=O)OCc2ccccc2)cc1 (stereo unspecified) | inconclusive: -32.4%
CN(C)c1ccc(/C=N/NC(=O)CCC(=O)NCc2ccccc2)cc1 | inconclusive: -33.8%
O=C(N/N=C/c1coc2ccccc2c1=O)c1cccc([N+](=O)[O-])c1 | inactive: 3.33%
CC(C)CCn1c(SCc2cccc(F)c2)nc2ccsc2c1=O | inconclusive: -31.5%
COc1ccc([C@H]2CC(=O)C=C(c3cccc4c3Oc3ccccc3S4)C2)cc1OC | inactive: 1.14%
CCOCCCNC(=O)c1cc2sc(Cl)cc2n1CC | inconclusive: -31.9%
O=C(NCC(c1ccc(F)cc1)N1CCOCC1)c1cccc(Br)c1 (stereo unspecified) | inconclusive: -37.5%
COc1ccc(CNCC(O)(c2ccccc2)c2ccc(F)cc2)cc1 (stereo unspecified) | inactive: 1.63%
Cc1sc2ncnc(N3CCN(CCOc4ccc(Cl)cc4)CC3)c2c1C | inactive: 25%
O=C(NN=C1CCCCCC1)c1cc(-c2ccccc2)nc2ccccc12 | inactive: 0.477%
Cc1ccc(Cl)cc1N1CCN(CC(O)COCc2ccco2)CC1 (stereo unspecified) | inactive: 13.1%
COC(=O)c1[nH]c2cc(OC)ccc2c1NC(=O)CCN1CCSCC1 | inactive: 6.01%
CCN1CCN(c2ccc(S(=O)(=O)N3CCOCC3)cc2NC(=O)c2cccc([N+](=O)[O-])c2)CC1 | inactive: 71.2%
CN(C)C1=NC[C@H](Cc2ccccc2)N1CCc1cccc(F)c1 | inactive: -8.9%
COc1cccc2cc(C(=O)N3CCN(c4cc(C)ccc4C)CC3)c(=O)oc12 | inconclusive: -32.7%
CC(C)c1cc(C(=O)O)c2cnn(C(C)C)c2n1 | inconclusive: -47.9%
Cc1cccc(N2CC(C(=O)Nc3nnc(SCCC4OCCO4)s3)CC2=O)c1 (stereo unspecified) | inconclusive: -30.2%
O=C(NCc1ccccc1)c1ccc(C(=O)N(C2CCCCC2)C2CCCCC2)cc1 | inconclusive: -49%
COC(=O)c1cc(S(=O)(=O)Nc2cccc(C)c2C)cn1C | inconclusive: -42.3%
COC(=O)C1=C(C)OC(N)=C(C#N)C1c1ccccc1F (stereo unspecified) | inactive: 3.6%
COC(=O)[C@@H](Cc1c[nH]c2ccccc12)NC(=O)c1ccc2c(c1)OCO2 | inconclusive: -35.2%
Cc1ccc(C(c2nnnn2C(C)(C)C)N2CCN(C3CCCC3)CC2)cc1 (stereo unspecified) | inconclusive: -40.7%

SMILES | activity change, negative = inhibition
COc1ccc(CCNc2oc(-c3ccccc3OC)nc2C#N)cc1OC | inactive: 5.75%
Clc1cccc(N/N=C(\Cc2nc3ccccc3[nH]2)c2ccccc2)c1 | inconclusive: -39.3%
O=C(N[C@@H](Cc1ccccc1)C(=O)OCc1ccccc1)c1nc[nH]c1C(=O)NCc1ccccc1 | inactive: 14.5%
CCOc1ccc(CNS(=O)(=O)c2cc3c(cc2C)NC(=O)CO3)cc1 | inconclusive: -31.7%
CCOCCCNC(=O)CN1C(=O)CSc2ccc(S(=O)(=O)N3CCOCC3)cc21 | inconclusive: -37.1%
CC1(C)OC(=O)C2=C(CC(c3ccccc3)OC2CCc2ccccc2)O1 (stereo unspecified) | inconclusive: -31.2%
COCCCNS(=O)(=O)c1cc(-c2onc(C)c2C)ccc1OC | inconclusive: -30.6%
Cc1cc[n+](-c2[nH]c(=O)sc2/C=N/NC(=O)c2ccccc2[O-])cc1C | inconclusive: -43.9%
CCCOC(=O)/C(=C\c1ccc([N+](=O)[O-])o1)NC(=O)c1ccccc1 | inactive: -15%
CN1/C(=C\C(=O)CSc2ncn[nH]2)C(C)(C)c2ccccc21 | inconclusive: -33.2%
CN(C)c1cc(-c2ccc(C#N)cc2)oc(=O)c1Cl | inconclusive: -30.6%
CCc1cccc(C)c1NC(=O)CC1Oc2ccc(C)cc2NC1=O (stereo unspecified) | inactive: -11.2% and inactive: -17.2%
C(/C=C/c1ccccn1)=C\c1ccccc1 | inactive: 1.51%
O=C(NCC(c1ccco1)N1CCc2ccccc2C1)c1cccc(Br)c1 (stereo unspecified) | inactive: -1.31%
CCCCSCCCNC(=O)c1cn(CC)c2ccc(S(=O)(=O)N3CCCCCC3)cc2c1=O | inconclusive: -30.8%
O=C(Nc1cc(NC(=O)c2ccccc2Cl)ccc1Cl)c1ccccc1 | inconclusive: -30.3%
CC(C)(C)C(=O)CSc1nc2ccsc2c(=O)n1Cc1ccccc1F | inconclusive: -45.8%
CN(C)S(=O)(=O)c1ccc(Cl)c(NC(=O)COC(=O)CCSc2ccccc2)c1 | inconclusive: -37.4%
CCOc1cc(CNCc2cccs2)cc(Br)c1OCC | inconclusive: -34.4%
CN(C)S(=O)(=O)n1cc(/C=C(\NC(=O)c2ccccc2)C(=O)NCCN2CCOCC2)c2ccccc21 | inconclusive: -30.4%
